The list shows a part of the results.
Target: LIPE_Q05469_991_SLPPVHIVACALDPMLDDSVMLAR (UniProt Q05469)
Assay: probe-labelled cysteine peptide fold change vs DMSO (competition) (log2 fold change); higher = less target engagement (more negative = stronger competition)
Details: THP-1, incubation time: 4 h
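Also: competitive profiling in live THP-1 cells: cysteine peptides tagged with an iodoacetamide desthiobiotin (IA-DTB) probe, intensity after compound treatment relative to DMSO-treated cells.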

Chains of the proteins cited; added tags and fusions are not shown. Lines headed by an entry give the natural chain unless they say otherwise; changes in a name come on top.
UniProt Q05469: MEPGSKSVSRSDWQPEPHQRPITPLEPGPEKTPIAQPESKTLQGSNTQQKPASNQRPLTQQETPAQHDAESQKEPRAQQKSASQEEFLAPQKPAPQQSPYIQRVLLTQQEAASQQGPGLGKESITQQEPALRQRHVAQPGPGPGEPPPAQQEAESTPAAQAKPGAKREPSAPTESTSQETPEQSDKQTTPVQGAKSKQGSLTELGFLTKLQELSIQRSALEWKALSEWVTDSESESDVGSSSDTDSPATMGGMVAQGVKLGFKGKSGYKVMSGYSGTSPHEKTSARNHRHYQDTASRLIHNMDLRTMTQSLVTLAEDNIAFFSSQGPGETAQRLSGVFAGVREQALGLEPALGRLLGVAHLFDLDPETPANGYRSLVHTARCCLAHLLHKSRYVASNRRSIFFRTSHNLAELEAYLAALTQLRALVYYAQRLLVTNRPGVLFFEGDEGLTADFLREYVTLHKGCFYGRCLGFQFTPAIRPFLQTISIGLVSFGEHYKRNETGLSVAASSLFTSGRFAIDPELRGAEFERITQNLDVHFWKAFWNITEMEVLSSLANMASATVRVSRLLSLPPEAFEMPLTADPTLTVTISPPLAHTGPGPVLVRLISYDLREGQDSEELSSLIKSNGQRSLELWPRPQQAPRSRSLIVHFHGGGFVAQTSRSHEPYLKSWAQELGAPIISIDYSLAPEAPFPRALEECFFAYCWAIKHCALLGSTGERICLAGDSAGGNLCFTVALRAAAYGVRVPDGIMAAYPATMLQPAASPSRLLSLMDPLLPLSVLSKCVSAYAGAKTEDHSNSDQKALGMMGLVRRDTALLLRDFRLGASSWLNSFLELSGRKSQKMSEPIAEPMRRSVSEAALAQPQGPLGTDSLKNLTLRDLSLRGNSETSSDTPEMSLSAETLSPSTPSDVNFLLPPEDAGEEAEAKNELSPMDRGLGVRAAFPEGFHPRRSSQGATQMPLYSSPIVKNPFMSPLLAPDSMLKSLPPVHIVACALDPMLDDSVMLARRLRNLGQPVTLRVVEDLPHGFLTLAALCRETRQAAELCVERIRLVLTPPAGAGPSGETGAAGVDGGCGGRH

SMILES: Cc1cc(C(=O)N2CCCN(C(=O)CCl)CC2)ccc1-c1ccccc1 [compound 10]
- probe-labelled cysteine peptide fold change (10 µM): 0.354
- probe-labelled cysteine peptide fold change (50 µM): 0.241

From the supplement of paper PMC12067093, “Discovery and optimisation of a covalent ligand for TRIM25 and its application to targeted protein ubiquitination” (Chemical Science, 2025)
